1 substance from PMC11729874, “How J-chain ensures the assembly of immunoglobulin IgM pentamers” (The EMBO Journal, 2024) can be followed below.

Sequences of proteins named here, by UniProt entry; tags and fusion partners are left off. A change or cut given only in a name is not applied to a line headed by its entry.
UniProt Q9BS26: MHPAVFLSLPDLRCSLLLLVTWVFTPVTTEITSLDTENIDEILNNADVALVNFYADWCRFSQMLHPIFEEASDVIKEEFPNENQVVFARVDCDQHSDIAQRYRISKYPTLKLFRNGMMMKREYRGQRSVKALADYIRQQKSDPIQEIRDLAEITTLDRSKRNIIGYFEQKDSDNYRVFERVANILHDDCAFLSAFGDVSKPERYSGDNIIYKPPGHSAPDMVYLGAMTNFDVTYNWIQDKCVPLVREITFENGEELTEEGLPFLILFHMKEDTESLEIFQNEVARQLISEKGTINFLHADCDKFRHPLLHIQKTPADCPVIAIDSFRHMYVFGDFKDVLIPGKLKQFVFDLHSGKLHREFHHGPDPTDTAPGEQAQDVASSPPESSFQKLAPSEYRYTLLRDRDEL

These are yes or no findings as the source states them, for the method shown.

The test concerns the target T1, J-chain (JC), expressed in transfected cells (UniProt P01592).
T1 sequence: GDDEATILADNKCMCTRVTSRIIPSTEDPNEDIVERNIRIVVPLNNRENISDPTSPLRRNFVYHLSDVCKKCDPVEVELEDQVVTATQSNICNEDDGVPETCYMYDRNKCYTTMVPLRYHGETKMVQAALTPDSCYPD
In words: nonreducing SDS-PAGE and western blot of covalent assemblies; HeLa-ERp44KO transfected with JC variants, H-Cµ234tp and/or H-ERp44 variants; RIPA lysates with 10 mM NEM and supernatants; Halo ligands, anti-JC, anti-ERp44, anti-µ. In general terms: A western blot detects proteins with antibodies after separation by electrophoresis.

Take “H-ERp44 mutant lacking the RDEL motif (from UniProt Q9BS26)”: the binding result is reported as “no binding”.
